Results taken from the supplement of paper PMC6078165.
Values are relative to the signal before dosing, not to a vehicle control; the signal also falls without drug.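 Labels refer to human fibroblasts, largely primary: uterine (C12385, HUF), lung (H6013), bone (Hs27A), adrenal (HADF), skin (WS1), plus mammary HMF and breast cancer-associated Hs343T. Cancer lines are basal-like or mesenchymal-like triple-negative breast cancer. The paper counts as hits responses shifting over 3x the replicate standard deviation. The tissue of the other fibroblasts is not given here.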

Tested on: Hs578T
Experiment: relative JC-1 red fluorescence (viability) vs pre-drug, coculture with fibroblast (fraction); higher = more viable cancer cells
Description: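 JC-1 labelled TNBC cells cocultured 1:1 (1,500 cells each) with CellTrace Violet stained primary or stromal fibroblasts in 384-well plates in FluoroBrite medium, treated with one of 42 anticancer drugs at 0.1, 1, 10 or 100 uM. JC-1 red fluorescence (mitochondrial integrity in cancer cells only) was read by plate reader every 8 h for 72 h. Values are normalised to each well's pre-drug value. The stock of one drug was tenfold lower, so its dose labels may be too high.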

CC/C(=C(\c1ccccc1)c1ccc(OCCN(C)C)cc1)c1ccccc1 [Tamoxifen]
relative JC-1 red fluorescence
Settings | 8 h | 16 h | 24 h | 32 h | 40 h | 48 h | 56 h | 64 h | 72 h
0.1 µM | 0.896 | 0.79 | 0.7433 | 0.7074 | 0.659 | 0.615 | 0.59 | 0.542 | 0.524
1 µM | 0.8863 | 0.812 | 0.777 | 0.748 | 0.683 | 0.635 | 0.613 | 0.568 | 0.537
10 µM | 0.917 | 0.901 | 0.925 | 0.927 | 0.9 | 0.887 | 0.896 | 0.865 | 0.865

relative JC-1 red fluorescence
Settings | 8 h | 16 h | 24 h | 32 h | 40 h | 48 h | 56 h | 64 h | 72 h
0.1 µM, coculture fibroblast: C12385 | 0.815 | 0.692 | 0.644 | 0.554 | 0.4978 | 0.463 | 0.4246 | 0.416 | 0.415
0.1 µM, coculture fibroblast: H6013 | 0.8853 | 0.7828 | 0.736 | 0.72 | 0.689 | 0.682 | 0.666 | 0.666 | 0.645
0.1 µM, coculture fibroblast: H6019 | 0.756 | 0.672 | 0.66966 | 0.58232 | 0.553 | 0.529 | 0.497 | 0.483 | 0.464
0.1 µM, coculture fibroblast: H6076 | 0.947 | 0.853 | 0.783 | 0.757 | 0.722 | 0.731 | 0.713 | 0.712 | 0.711
0.1 µM, coculture fibroblast: H6231 | 0.8834 | 0.787 | 0.685 | 0.641 | 0.57 | 0.534 | 0.481 | 0.465 | 0.452
0.1 µM, coculture fibroblast: HADF | 0.902 | 0.791 | 0.744 | 0.696 | 0.663 | 0.636 | 0.609 | 0.605 | 0.586
0.1 µM, coculture fibroblast: HCFa | 0.9066 | 0.795 | 0.744 | 0.696 | 0.63 | 0.601 | 0.566 | 0.544 | 0.504
0.1 µM, coculture fibroblast: HCPF | 0.911 | 0.797 | 0.767 | 0.741 | 0.682 | 0.66 | 0.64 | 0.608 | 0.595
0.1 µM, coculture fibroblast: HHSteC | 0.897 | 0.755 | 0.686 | 0.636 | 0.569 | 0.527 | 0.497 | 0.471 | 0.437
0.1 µM, coculture fibroblast: HMF | 0.864 | 0.757 | 0.687 | 0.666 | 0.611 | 0.579 | 0.546 | 0.523 | 0.507
0.1 µM, coculture fibroblast: HPFa | 0.90163 | 0.83 | 0.754 | 0.691 | 0.64 | 0.596 | 0.555 | 0.528 | 0.485
0.1 µM, coculture fibroblast: HUF | 0.8808 | 0.738 | 0.717 | 0.6092 | 0.541 | 0.501 | 0.469 | 0.46 | 0.451
0.1 µM, coculture fibroblast: Hs27A | 0.8734 | 0.805 | 0.752 | 0.693 | 0.6332 | 0.6038 | 0.563 | 0.54669 | 0.4975
0.1 µM, coculture fibroblast: Hs343T | 0.892 | 0.768 | 0.6997 | 0.679 | 0.615 | 0.592 | 0.562 | 0.544 | 0.544
0.1 µM, coculture fibroblast: WS1 | 0.831 | 0.708 | 0.656 | 0.555 | 0.502 | 0.49 | 0.465 | 0.467 | 0.465
1 µM, coculture fibroblast: C12385 | 0.839 | 0.69742 | 0.695 | 0.591 | 0.536 | 0.508 | 0.49 | 0.49 | 0.488
1 µM, coculture fibroblast: H6013 | 0.9196 | 0.879 | 0.862 | 0.856 | 0.836 | 0.834 | 0.817 | 0.816 | 0.796
1 µM, coculture fibroblast: H6019 | 0.784 | 0.7 | 0.679 | 0.58 | 0.5418 | 0.5121 | 0.477 | 0.456 | 0.4265
1 µM, coculture fibroblast: H6076 | 0.911 | 0.8304 | 0.783 | 0.777 | 0.731 | 0.73 | 0.713 | 0.698 | 0.693
1 µM, coculture fibroblast: H6231 | 0.8974 | 0.801 | 0.7484 | 0.714 | 0.653 | 0.632 | 0.584 | 0.564 | 0.546
1 µM, coculture fibroblast: HADF | 0.913 | 0.8114 | 0.79 | 0.751 | 0.72 | 0.703 | 0.666 | 0.656 | 0.626
1 µM, coculture fibroblast: HCFa | 0.878 | 0.825 | 0.791 | 0.742 | 0.694 | 0.68 | 0.653 | 0.637 | 0.604
1 µM, coculture fibroblast: HCPF | 0.919 | 0.819 | 0.792 | 0.762 | 0.705 | 0.688 | 0.676 | 0.635 | 0.618
1 µM, coculture fibroblast: HHSteC | 0.9157 | 0.823 | 0.775 | 0.726 | 0.674 | 0.635 | 0.601 | 0.575 | 0.536
1 µM, coculture fibroblast: HMF | 0.861 | 0.76 | 0.7459 | 0.731 | 0.686 | 0.664 | 0.644 | 0.613 | 0.6
1 µM, coculture fibroblast: HPFa | 0.9177 | 0.8686 | 0.78635 | 0.724 | 0.677 | 0.627 | 0.577 | 0.548 | 0.5
1 µM, coculture fibroblast: HUF | 0.848 | 0.74 | 0.694 | 0.583 | 0.527 | 0.492 | 0.456 | 0.449 | 0.443
1 µM, coculture fibroblast: Hs27A | 0.8735 | 0.828 | 0.769 | 0.734 | 0.678 | 0.657 | 0.616 | 0.611 | 0.558
1 µM, coculture fibroblast: Hs343T | 0.895 | 0.7955 | 0.759 | 0.739 | 0.6673 | 0.629 | 0.598 | 0.573 | 0.571
1 µM, coculture fibroblast: WS1 | 0.8124 | 0.702 | 0.637 | 0.537 | 0.484 | 0.462 | 0.434 | 0.43 | 0.423
10 µM, coculture fibroblast: C12385 | 0.835 | 0.795 | 0.793 | 0.82 | 0.83 | 0.8492 | 0.859 | 0.8581 | 0.857
10 µM, coculture fibroblast: H6013 | 0.941 | 0.9484 | 0.948 | 0.902 | 0.851 | 0.818 | 0.767 | 0.802 | 0.792
10 µM, coculture fibroblast: H6019 | 0.8041 | 0.81 | 0.815 | 0.803 | 0.776 | 0.745 | 0.714 | 0.678 | 0.648
10 µM, coculture fibroblast: H6076 | 0.937 | 0.943 | 0.934 | 0.937 | 0.904 | 0.907 | 0.872 | 0.841 | 0.814
10 µM, coculture fibroblast: H6231 | 0.838 | 0.951 | 0.942 | 0.913 | 0.881 | 0.882 | 0.8392 | 0.819 | 0.794
10 µM, coculture fibroblast: HADF | 0.919 | 0.963 | 0.829 | 0.881 | 0.861 | 0.819 | 0.9229 | 0.871 | 0.812
10 µM, coculture fibroblast: HCFa | 0.9298 | 0.968 | 0.934 | 0.871 | 0.883 | 0.983 | 0.961 | 0.947 | 0.901
10 µM, coculture fibroblast: HCPF | 0.971 | 0.948 | 0.969 | 0.96 | 0.95 | 0.9694 | 0.967 | 0.942 | 0.912
10 µM, coculture fibroblast: HHSteC | 0.926 | 0.918 | 0.93 | 0.95344 | 0.9463 | 0.9639 | 0.954 | 0.938 | 0.918
10 µM, coculture fibroblast: HMF | 0.955 | 0.947 | 0.876 | 0.931 | 0.905 | 0.897 | 0.86 | 0.839 | 0.801
10 µM, coculture fibroblast: HPFa | 0.921 | 0.939 | 0.952 | 0.976 | 0.97 | 0.927 | 0.938 | 0.929 | 0.8811
10 µM, coculture fibroblast: HUF | 0.8714 | 0.822 | 0.857 | 0.827 | 0.812 | 0.794 | 0.753 | 0.734 | 0.708
10 µM, coculture fibroblast: Hs27A | 0.953 | 0.932 | 0.834 | 0.831 | 0.778 | 0.8 | 0.851 | 0.718 | 0.868
10 µM, coculture fibroblast: Hs343T | 0.821 | 0.896 | 0.875 | 0.894 | 0.961 | 0.949 | 0.903 | 0.87 | 0.8433
10 µM, coculture fibroblast: WS1 | 0.8216 | 0.848 | 0.844 | 0.886 | 0.905 | 0.937 | 0.933 | 0.931 | 0.915
